Substitutions are numbered along the chain they refer to. No constants are given. Whether binding was seen depends on the method and setting. Binding seen in cells or lysates may run through a third protein. Binding calls can cover weak binding; strength is not graded here. Sequences can lack the tags named with a protein.
Experiments:
Experiment in all cases: co-IP; lysates of L6 myoblasts transiently transfected with FLAG-GLUT1 constructs, treated for one hour with vehicle (DMSO), 6 µM CP466722 (ATM inhibitor) or 1 µM doxorubicin (ATM activator); FLAG antibodies overnight at 4°C, protein A sepharose 4 hours at 4°C, five washes with lysis buffer (50 mM HEPES pH 7.4, 150 mM NaCl, 1% Triton X-100); Western blot for GIPC1 and stomatin
FLAG-GLUT1 S490D = target: T1, FLAG-GLUT1 S490D (UniProt P11167)
T1 sequence: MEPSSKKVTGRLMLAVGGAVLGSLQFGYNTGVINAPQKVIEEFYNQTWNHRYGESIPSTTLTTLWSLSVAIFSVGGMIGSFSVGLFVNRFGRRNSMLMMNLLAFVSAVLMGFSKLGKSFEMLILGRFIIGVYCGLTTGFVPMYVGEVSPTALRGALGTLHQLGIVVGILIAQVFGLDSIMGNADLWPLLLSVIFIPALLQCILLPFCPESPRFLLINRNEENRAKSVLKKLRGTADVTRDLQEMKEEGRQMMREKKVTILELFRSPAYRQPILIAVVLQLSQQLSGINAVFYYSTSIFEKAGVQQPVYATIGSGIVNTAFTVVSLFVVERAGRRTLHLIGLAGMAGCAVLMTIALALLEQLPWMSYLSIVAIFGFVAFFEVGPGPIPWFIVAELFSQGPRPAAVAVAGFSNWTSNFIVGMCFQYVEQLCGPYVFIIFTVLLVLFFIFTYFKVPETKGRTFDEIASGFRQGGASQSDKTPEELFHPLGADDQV

FLAG-GLUT1 = target: T2, FLAG-GLUT1 (UniProt P11167)
T2 sequence: T1 sequence with D490S

FLAG-GLUT1 S490A = target: T3, FLAG-GLUT1 S490A (UniProt P11167)
T3 sequence: T1 sequence with D490A

binding (FLAG-GLUT1 S490D): binds
binding (FLAG-GLUT1): binds
binding (FLAG-GLUT1 S490A): binds
Substance: stomatin (STOM) (rat (endogenous in L6))

— publication PMC3679034
